Test results taken from patent US20180099046A1.
Results are given in words; binding and its absence hold for the method and conditions named. Some entries that bind do so weakly or less than the wild type.

Amino acid sequences for entries named in this document (tags omitted). Residues count along the entry.
UniProt Q9BQB4, residues 24-213: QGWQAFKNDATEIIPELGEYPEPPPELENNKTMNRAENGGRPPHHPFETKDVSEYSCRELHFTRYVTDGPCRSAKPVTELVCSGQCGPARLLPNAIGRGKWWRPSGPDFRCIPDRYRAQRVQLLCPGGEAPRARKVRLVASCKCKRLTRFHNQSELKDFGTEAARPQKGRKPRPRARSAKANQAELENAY

Target: human sclerostin with a Flag tag (h-SOST-Flag) (human) (UniProt Q9BQB4)
Experiment: binding ELISA (Test Example 1)

binding: binds
B1: murine anti-human sclerostin monoclonal antibody Ab-1 (antibody, V domains shown)
VH: EVQLQQSGPELVKPGTSVKIPCQTSGYTFTDYNLDWLKQRPGESLEWIGDIDPNNGDILYNQKFRDKATLTVDTSSNTAYLELRSLTSEDTAVYYCARRWAYYFDYWGQGTTLTISS
VL: NIVMTQTPKLLFVSAGDRITITCKASQSVSNDVAWYQQKPGQSPKLLIYYTSNRFTGVPDRFTGSGYGTDFTLTINTVQAEDLAVYFCQQDYSSPVTFGAGTKLELK
